Laboratory results as given in paper PMC3852243.
For at least one entry, the source does not settle the construct or the ends of the probe. For some assays here: A negative result means that nothing was seen under these conditions. For some assays here: At least one verdict was read from the data and is not stated in words by the source.

The chains behind the UniProt entries cited, without tags or fusion partners.
UniProt P08515, whole entry: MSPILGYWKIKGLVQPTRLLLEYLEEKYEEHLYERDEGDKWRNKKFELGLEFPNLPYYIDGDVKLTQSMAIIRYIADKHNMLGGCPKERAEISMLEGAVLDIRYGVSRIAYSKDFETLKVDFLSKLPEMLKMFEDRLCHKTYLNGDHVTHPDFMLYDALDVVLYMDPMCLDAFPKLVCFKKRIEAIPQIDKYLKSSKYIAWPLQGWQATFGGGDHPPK

What was measured:
Assay in all cases: EMSA
[1] = target: GST (UniProt P08515); details: 5' phosphorylated; Protein in Buffer 1: 100 mM KCl, 50 mM HEPES pH 7.5, 10% glycerol, 5 mM MgCl2, 1 mM DTT; recombinant protein; protein details: GST
[2] = tested on: GST-FruA DBD (Drosophila melanogaster); details: 5' phosphorylated; Protein in Buffer 1: 100 mM KCl, 50 mM HEPES pH 7.5, 10% glycerol, 5 mM MgCl2, 1 mM DTT; recombinant protein; protein details: N-terminal GST (pGEX-4T1)
[3] = tested on: GST-FruB DBD (Drosophila melanogaster); details: binding attributed to the common flanks present in all oligos; 5' phosphorylated; Protein in Buffer 1: 100 mM KCl, 50 mM HEPES pH 7.5, 10% glycerol, 5 mM MgCl2, 1 mM DTT; recombinant protein; protein details: N-terminal GST (pGEX-4T1)
[4] = tested on: GST-FruC DBD (Drosophila melanogaster); details: 5' phosphorylated; Protein in Buffer 1: 100 mM KCl, 50 mM HEPES pH 7.5, 10% glycerol, 5 mM MgCl2, 1 mM DTT; recombinant protein; protein details: N-terminal GST (pGEX-4T1)

Sequence | binding result [1] | binding result [2] | binding result [3] | binding result [4]
TCGACCTGCAGAGTAACCTGCAGG / TCGACCTGCAGGTTACTCTGCAGG [FruMA consensus oligo] | no binding | binds | binds | no binding
TCGACCTGCAGATAGACCTGCAGG / TCGACCTGCAGGTCTATCTGCAGG [FruMA randomized oligo] | – | no binding | – | –
TCGACCTGCAGGCATCTATATCTGCAGG / TCGACCTGCAGATATAGATGCCTGCAGG [FruMC randomized oligo] | – | – | – | no binding
TCGACCTGCAGTGTTACATCACTGCAGG / TCGACCTGCAGTGATGTAACACTGCAGG [FruMC consensus oligo] | – | no binding | – | binds
